Results are given in words; binding and its absence hold for the method and conditions named. Some entries that bind do so weakly or less than the wild type.
Molecular target: recombinant TNFRSF9 protein (Homo sapiens (Human)) (UniProt Q07011)
Experiment: indirect ELISA, plate coated with 0.5 ug/ml recombinant TNFRSF9 protein, OD450 against Log (ng/ml) of antibody

The chains behind the UniProt entries cited, without tags or fusion partners. Where a name states a change or a piece, a line headed by the entry shows the natural chain unless it says otherwise.
UniProt Q07011: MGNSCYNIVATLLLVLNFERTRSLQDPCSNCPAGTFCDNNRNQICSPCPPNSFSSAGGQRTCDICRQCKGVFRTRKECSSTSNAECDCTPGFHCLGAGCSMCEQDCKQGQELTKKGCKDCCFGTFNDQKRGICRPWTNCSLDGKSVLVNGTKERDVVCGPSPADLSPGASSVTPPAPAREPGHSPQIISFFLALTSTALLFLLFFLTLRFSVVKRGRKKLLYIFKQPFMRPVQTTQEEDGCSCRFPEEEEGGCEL

B1: 81E11WTH (antibody, V domains shown)
VH: QSVKESEGGLFKPTDTLTLACTVSGFSLSYNAITWVRQAPGNGLEWIGVINYDGTTVYASWAKSRSTITRNTNLNTVTLKMTSLTAADTATYFCARNFNIWGPGTLVTVSS
VL: AAVLTQTPSPVSVTVGGTVTINCQASQSVDNNNYLAWFQQKPGQPPKQLIYSASTLASGVSSRFKGSGSGTQFTLTISGVQCDDAATYYCLGEFSASSGDWNAFGGGTEVVVK
notes: also called control 81E11WTH
With B1 the binding was “binds”.

From patent publication US20260148804A1 (NANJING GENSCRIPT BIOTECH, published 2026)
